Results on 29 compounds are retold here after the supplement of paper PMC10849652.

The chains behind the UniProt entries cited, without tags or fusion partners. Where a name states a change or a piece, a line headed by the entry shows the natural chain unless it says otherwise.
UniProt Q9Y5A6: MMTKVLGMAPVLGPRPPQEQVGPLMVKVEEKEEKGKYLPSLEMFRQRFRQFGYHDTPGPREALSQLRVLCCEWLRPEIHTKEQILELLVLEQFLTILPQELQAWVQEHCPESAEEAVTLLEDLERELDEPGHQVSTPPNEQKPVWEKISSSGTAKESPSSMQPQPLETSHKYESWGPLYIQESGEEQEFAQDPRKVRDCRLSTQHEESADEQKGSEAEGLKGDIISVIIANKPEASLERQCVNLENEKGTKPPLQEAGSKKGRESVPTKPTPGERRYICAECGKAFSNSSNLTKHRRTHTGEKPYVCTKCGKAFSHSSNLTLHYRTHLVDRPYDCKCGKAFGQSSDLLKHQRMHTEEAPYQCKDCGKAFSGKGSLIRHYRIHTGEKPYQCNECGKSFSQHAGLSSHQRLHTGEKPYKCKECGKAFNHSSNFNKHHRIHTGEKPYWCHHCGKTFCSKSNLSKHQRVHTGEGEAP
UniProt Q16670: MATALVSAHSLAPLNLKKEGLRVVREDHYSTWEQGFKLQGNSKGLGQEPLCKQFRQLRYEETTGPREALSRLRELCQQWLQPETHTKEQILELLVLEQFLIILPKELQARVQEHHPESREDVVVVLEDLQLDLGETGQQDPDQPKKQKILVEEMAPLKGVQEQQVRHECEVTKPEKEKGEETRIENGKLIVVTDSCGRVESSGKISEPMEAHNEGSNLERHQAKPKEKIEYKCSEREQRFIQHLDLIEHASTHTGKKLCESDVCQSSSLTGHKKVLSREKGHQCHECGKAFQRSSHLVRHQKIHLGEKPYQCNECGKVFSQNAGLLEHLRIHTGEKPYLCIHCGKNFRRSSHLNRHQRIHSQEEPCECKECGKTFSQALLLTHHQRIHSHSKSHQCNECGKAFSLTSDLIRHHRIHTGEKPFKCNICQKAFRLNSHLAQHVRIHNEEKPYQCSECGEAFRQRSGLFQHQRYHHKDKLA
UniProt Q19AV6: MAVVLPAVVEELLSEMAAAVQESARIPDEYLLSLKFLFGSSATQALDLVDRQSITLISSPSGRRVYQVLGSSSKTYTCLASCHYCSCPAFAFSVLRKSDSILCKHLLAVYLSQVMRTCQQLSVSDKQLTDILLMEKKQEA
UniProt O43264: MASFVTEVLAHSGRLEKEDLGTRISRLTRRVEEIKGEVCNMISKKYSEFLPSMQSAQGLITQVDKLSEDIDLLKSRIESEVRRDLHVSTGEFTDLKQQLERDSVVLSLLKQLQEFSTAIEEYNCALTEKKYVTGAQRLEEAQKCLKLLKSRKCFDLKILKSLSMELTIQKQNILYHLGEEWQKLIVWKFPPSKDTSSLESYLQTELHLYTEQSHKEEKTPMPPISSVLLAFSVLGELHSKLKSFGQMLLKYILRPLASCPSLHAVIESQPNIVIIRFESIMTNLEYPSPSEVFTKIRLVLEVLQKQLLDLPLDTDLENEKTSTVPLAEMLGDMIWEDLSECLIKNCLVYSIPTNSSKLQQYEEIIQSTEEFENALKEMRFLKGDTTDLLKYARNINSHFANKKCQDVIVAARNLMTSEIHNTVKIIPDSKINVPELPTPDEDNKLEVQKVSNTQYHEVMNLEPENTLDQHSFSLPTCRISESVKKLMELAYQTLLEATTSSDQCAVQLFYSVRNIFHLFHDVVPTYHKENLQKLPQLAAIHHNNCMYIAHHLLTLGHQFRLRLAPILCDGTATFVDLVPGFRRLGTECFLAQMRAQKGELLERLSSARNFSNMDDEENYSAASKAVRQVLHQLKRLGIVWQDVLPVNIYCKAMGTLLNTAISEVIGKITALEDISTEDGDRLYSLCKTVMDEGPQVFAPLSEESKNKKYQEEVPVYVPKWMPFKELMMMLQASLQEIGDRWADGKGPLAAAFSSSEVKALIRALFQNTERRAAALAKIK

Each structure is given as a SMILES string. Some of the results follow.

In one assay the target is ZSCAN21 (UniProt Q9Y5A6). As to the kind of experiment: log2 fold change, soluble protein after heating vs DMSO (PISA); higher = thermal stabilisation; K562 cells, 10 uM, 30 min; active = over 0.2 and 3.5 SD of the protein, either way, in both replicates (recomputed). An outline of the steps: (§1)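 K562 cells at 2×10^6 cells/mL were treated for 30 min with 10 μM compound, and aliquots were heated for 3 min over 48°C-58°C before pooling. Extraction used PBS with 0.5% NP-40 at 4°C, and soluble protein was the supernatant after 21,000xg for 90 min, measured by TMTpro 16plex LC-MS/MS with channel sums equalised. Thermal stability values, relative to control samples and from duplicates, are log2 fold changes.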
As for `CN1CC[C@H](c2c(O)cc(O)c3c(=O)cc(-c4ccccc4Cl)oc23)[C@H](O)C1` [alvocidib], the log2 fold change was inactive: 0.
In the case of `O=C1NC(=O)C(c2cnc3ccccn23)=C1c1cn2c3c(cc(F)cc13)CN(C(=O)N1CCCCC1)CC2`, the log2 fold change is inactive: 0.07.
`Cn1cc(-c2ccc3c(c2)CCN3C(=O)Cc2cccc(C(F)(F)F)c2)c2c(N)ncnc21`: the log2 fold change is inactive: 0.052.
The same measure, in the same setting: in the case of `CC(C)(O)CC(=O)NCCn1ccc2ncnc(Nc3ccc(Oc4cccc(C(F)(F)F)c4)c(Cl)c3)c21` it was inactive: 0.002.
On to `C[C@@H](N)c1ccc(C(=O)Nc2ccnc3[nH]ccc23)cc1`, for which the log2 fold change is inactive: 0.084.
For the compound `CC[C@H](C)[C@H](NC(=O)[C@H]([C@@H](C)CC)N(C)C(C)=O)C(=O)N[C@H](C(=O)N[C@@H](CC(C)C)C(=O)[C@@]1(C)CO1)[C@@H](C)O` [epoxomicin], the log2 fold change was inactive: -0.163.
Consider `Fc1ccc(Cl)cc1-c1nc(Nc2ccncc2)c2nccnc2n1`, for which the log2 fold change is inactive: -0.439.
On the same count and under the same terms, in the case of `CCCCN(Cc1ccc(C(=O)NO)cc1)C(=O)Nc1ccccc1` [Nexturastat A] it was inactive: 0.163; in that of `C[C@@H]1COCCN1c1cc(C2(S(C)(=O)=O)CC2)nc(-c2cccc3[nH]ccc23)n1`, inactive: -0.281.
Still for that read-out and setting: in the case of `CO[C@H]1C[C@@H]2CC[C@@H](C)[C@@](O)(O2)C(=O)C(=O)N2CCCC[C@H]2C(=O)O[C@H]([C@H](C)C[C@@H]2CC[C@H](n3cnnn3)[C@H](OC)C2)CC(=O)[C@H](C)/C=C(\C)[C@@H](O)[C@@H](OC)C(=O)[C@H](C)C[C@H](C)/C=C/C=C/C=C/1C` [zotarolimus] it was inactive: -0.071.

A further assay deals with ZSCAN26 (UniProt Q16670). The description is as above. An outline of the steps:
as §1
Turning to `Cc1cc(Nc2cc(N3CCN(C)CC3)nc(Sc3ccc(NC(=O)C4CC4)cc3)n2)n[nH]1` [tozasertib], the log2 fold change was inactive: -0.031.
Take `O=C(Nc1cccc(Nc2ncc(Br)c(NCCc3cnc[nH]3)n2)c1)N1CCCC1`: the log2 fold change is inactive: 0.067.
On the same count and under the same terms, the value for `NC1(Cc2ccc(Cl)cc2)CCN(c2ncnc3[nH]ccc23)CC1` was inactive: -0.093; that for `CN1CCc2c(c3ccccc3n2Cc2ccc(C(=O)NO)cc2)C1` [Tubastatin A] was inactive: 0.043.
On to `Cc1ccc2c(=O)c3ccccc3n(CCCN)c2c1C`, for which the log2 fold change is inactive: -0.505.

For another assay, the target named is ZSWIM7 (UniProt Q19AV6). The assay is described as above. Put shortly: as §1
For the compound `CC[C@H](C)n1cc(C)c2c(C(=O)NCc3c(C)cc(C)[nH]c3=O)cc(-c3ccc(N4CCNCC4)nc3)cc21`, the log2 fold change is inactive: 0.124.
As for `Cc1cc(Nc2cc(N3CCN(C)CC3)nc(Sc3ccc(NC(=O)C4CC4)cc3)n2)n[nH]1` [tozasertib], the log2 fold change is inactive: 0.225.
The same measure, in the same setting: in the case of `O=C(Nc1cccc(Nc2ncc(Br)c(NCCc3cnc[nH]3)n2)c1)N1CCCC1` it was inactive: -0.215.
Still for that read-out and setting: the value for `NC1(Cc2ccc(Cl)cc2)CCN(c2ncnc3[nH]ccc23)CC1` was inactive: 0.263; that for `CN1CCc2c(c3ccccc3n2Cc2ccc(C(=O)NO)cc2)C1` [Tubastatin A] was inactive: -0.032; that for `CC1=C(C(=O)Nc2cc3cn[nH]c3cc2F)C(c2ccc(C(F)(F)F)cc2)CC(=O)N1` (stereo not given) was inactive: -0.017.
Same read-out and setting: in the case of `Cc1nc(Nc2n[nH]c3c2CN(C(=O)N[C@H](CN(C)C)c2ccccc2)C3(C)C)c2sccc2n1` it was inactive: -0.04.
`CNC(=O)c1ccccc1Nc1nc(Nc2ccc(N3CCOCC3)cc2OC)ncc1Cl`: the log2 fold change was inactive: 0.031.
In the case of `Cc1ccc2c(=O)c3ccccc3n(CCCN)c2c1C`, the log2 fold change is inactive: -0.125.
The same measure, in the same setting: the value for `Cc1cn(-c2cc(NC(=O)c3ccc(C)c(Nc4nccc(-c5cccnc5)n4)c3)cc(C(F)(F)F)c2)cn1` [nilotinib] was inactive: 0.071.
On the same count and under the same terms, in the case of `Cc1ncc(-c2ccnc(Nc3ccc(S(C)(=O)=O)cc3)n2)n1C(C)C` it was inactive: -0.033; in that of `COc1cc2ncnc(Nc3ccc(F)c(Cl)c3)c2cc1OCCCN1CCOCC1` [gefitinib], inactive: -0.072.
As for `CC(C)c1cnn2c(NCc3ccccc3)cc(NCCCCCCN)nc12`, the log2 fold change was inactive: 0.067.
As for `NC(=O)c1ccc2nc(-c3ccc(Oc4ccc(Cl)cc4)cc3)[nH]c2c1`, the log2 fold change is inactive: -0.254.

The target of a further assay is ZW10 (UniProt O43264). The assay is described as above. Put shortly: as §1
As for `Cc1cc(SCc2sc(-c3ccc(C(F)(F)F)cc3)nc2C)ccc1OCC(=O)O`, the log2 fold change is inactive: 0.088.
For the compound `O=C1NC(=O)C(c2cnc3ccccn23)=C1c1cn2c3c(cc(F)cc13)CN(C(=O)N1CCCCC1)CC2`, the log2 fold change is inactive: 0.054.
On to `CC[C@H](C)n1cc(C)c2c(C(=O)NCc3c(C)cc(C)[nH]c3=O)cc(-c3ccc(N4CCNCC4)nc3)cc21`, for which the log2 fold change is inactive: 0.077.
The same measure, in the same setting: the value for `Cn1cc(-c2ccc3c(c2)CCN3C(=O)Cc2cccc(C(F)(F)F)c2)c2c(N)ncnc21` was inactive: -0.076; that for `CC(C)(O)CC(=O)NCCn1ccc2ncnc(Nc3ccc(Oc4cccc(C(F)(F)F)c4)c(Cl)c3)c21` was inactive: -0.027.
Same read-out and setting: in the case of `O=C(Nc1cccc(Nc2ncc(Br)c(NCCc3cnc[nH]3)n2)c1)N1CCCC1` it was inactive: -0.018; in that of `C[C@@H](N)c1ccc(C(=O)Nc2ccnc3[nH]ccc23)cc1`, inactive: 0.129.
In the case of `NC1(Cc2ccc(Cl)cc2)CCN(c2ncnc3[nH]ccc23)CC1`, the log2 fold change was inactive: -0.062.
Same read-out and setting: in the case of `CC[C@H](C)[C@H](NC(=O)[C@H]([C@@H](C)CC)N(C)C(C)=O)C(=O)N[C@H](C(=O)N[C@@H](CC(C)C)C(=O)[C@@]1(C)CO1)[C@@H](C)O` [epoxomicin] it was inactive: -0.046.
Still for that read-out and setting: in the case of `Fc1ccc(Cl)cc1-c1nc(Nc2ccncc2)c2nccnc2n1` it was inactive: -0.04.
On the same count and under the same terms, in the case of `CN1CCc2c(c3ccccc3n2Cc2ccc(C(=O)NO)cc2)C1` [Tubastatin A] it was inactive: 0.031; in that of `Cc1nc(Nc2n[nH]c3c2CN(C(=O)N[C@H](CN(C)C)c2ccccc2)C3(C)C)c2sccc2n1`, inactive: -0.11.
With `CNC(=O)c1ccccc1Nc1nc(Nc2ccc(N3CCOCC3)cc2OC)ncc1Cl`, the log2 fold change is inactive: 0.035.
As for `CCCCN(Cc1ccc(C(=O)NO)cc1)C(=O)Nc1ccccc1` [Nexturastat A], the log2 fold change is inactive: 0.093.
As to `Cc1nc(Nc2ncc(C(=O)Nc3c(C)cccc3Cl)s2)cc(N2CCN(CCO)CC2)n1` [dasatinib], the log2 fold change is inactive: -0.124.
The same measure, in the same setting: the value for `Cc1ccc2c(=O)c3ccccc3n(CCCN)c2c1C` was inactive: 0.013; that for `CN1CCN(CCOc2cc(OC3CCOCC3)c3c(Nc4c(Cl)ccc5c4OCO5)ncnc3c2)CC1` [saracatinib] was inactive: -0.031; that for `C[C@@H]1COCCN1c1cc(C2(S(C)(=O)=O)CC2)nc(-c2cccc3[nH]ccc23)n1` was inactive: -0.029.
On to `Cc1cn(-c2cc(NC(=O)c3ccc(C)c(Nc4nccc(-c5cccnc5)n4)c3)cc(C(F)(F)F)c2)cn1` [nilotinib], for which the log2 fold change was inactive: -0.088.
As for `CNc1nc(-c2ccc3c(N)n[nH]c3c2)cc(N2C[C@@H](C(=O)NC3CCCCC3)CC[C@H]2C)n1`, the log2 fold change was inactive: 0.009.
The same measure, in the same setting: the value for `Cc1ncc(-c2ccnc(Nc3ccc(S(C)(=O)=O)cc3)n2)n1C(C)C` was inactive: 0; that for `CO[C@H]1C[C@@H]2CC[C@@H](C)[C@@](O)(O2)C(=O)C(=O)N2CCCC[C@H]2C(=O)O[C@H]([C@H](C)C[C@@H]2CC[C@H](n3cnnn3)[C@H](OC)C2)CC(=O)[C@H](C)/C=C(\C)[C@@H](O)[C@@H](OC)C(=O)[C@H](C)C[C@H](C)/C=C/C=C/C=C/1C` [zotarolimus] was inactive: 0.023.
On the same count and under the same terms, the value for `Cn1c2cc(S(C)=O)sc2c2cnn(Cc3cccc(N)c3)c(=O)c21` (stereo not given) was inactive: 0.115; that for `COc1cc2ncnc(Nc3ccc(F)c(Cl)c3)c2cc1OCCCN1CCOCC1` [gefitinib] was inactive: 0.135.
Same read-out and setting: the value for `CC(C)c1cnn2c(NCc3ccccc3)cc(NCCCCCCN)nc12` was inactive: -0.213.
For `NC(=O)c1ccc2nc(-c3ccc(Oc4ccc(Cl)cc4)cc3)[nH]c2c1`, the log2 fold change was inactive: -0.005.
